Measurements published in PubChem BioAssay AID504834 (National Center for Advancing Translational Sciences (NCATS), 2011).
Screen size: about 320,000 compounds; about 22,000 (6.9%) were called active. The shares of active, inactive and inconclusive entries below differ from those in the screen. Calls follow the shape of the dose curve; as a rule, active = well fitted inhibition curve with a large enough effect; inconclusive = small, poorly fitted or top-dose-only effect, or another doubt; inactive = no such curve, though single readings can be large or run the other way. Potencies of inconclusive entries are doubtful fits and often do not repeat. Where a SMILES comes first, the peptide text is derived from it. The star is where a group is joined. Cbz = O=C(OCc1ccccc1)*

Test: Primary qHTS for delayed death inhibitors of the malarial parasite plastid, 96 hour incubation
Conditions: P. falciparum luciferase reporter growth; series mostly up to 28.7 µM
How it was run: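 Erythrocytes infected with luciferase-expressing P. falciparum were dispensed at 2% hematocrit and 0.05% parasitemia (final), then incubated with compounds 96 hours at 37 C in 5% CO2. Luminescence after detection reagent addition reported growth.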
Potency is read from the fitted curve at half-maximal effect.

SMILES	Potency
COc1ccc(NC(=O)Nc2ccon2)c(OC)c1	inactive
O=C(/C=C/c1ccc([N+](=O)[O-])cc1)NCCOc1ccc(F)cc1	inconclusive: 5.22 µM [inhibitor, partial curve]
CC(=O)Nc1ccc(NC(=O)Nc2ccccc2)cc1	inactive
CCOc1ccc(NC(=O)c2ccc(CNc3c(N4CCCC4)c(=O)c3=O)cc2)cc1	inconclusive: 9.28 µM [inhibitor, single point]
O=c1c2c3nc4ccccc4nc3n(-c3cccc(F)c3)c2ncn1Cc1ccc2c(c1)OCO2	inconclusive: 11.7 µM [inhibitor, single point]
S=C(Nc1ccccc1Cl)NC1CCN(Cc2ccccc2)CC1	inconclusive: 18.5 µM [inhibitor, single point]
COc1cccc(NC(=S)N(CCc2ccc(OC)c(OC)c2)Cc2ccccn2)c1	inconclusive: 8.28 µM [inhibitor, single point]
Cc1c(C(=O)Nc2ccncc2)sc2nc(-c3ccccc3)cn12	inconclusive: 2.33 µM [inhibitor, full curve, poor fit]
O=C(Oc1c(-c2ccccc2)oc2ccccc2c1=O)c1ccccc1	inconclusive: 18.5 µM [inhibitor, single point]
CCc1cc2c(-c3ccccc3)cc(=O)oc2cc1OCC(=O)NCC1CCC(C(=O)O)CC1 (stereo not given)	inconclusive: 16.5 µM [inhibitor, partial curve, poor fit]
Oc1ccc(F)c2cccnc12	active: 14.7 µM
COc1ccc(OC)c(Cc2nnc(CCC(=O)NC(C3CC3)C3CC3)o2)c1	inactive
CC1CCc2nn(CC(=O)NC3CCCC(C)C3C)cc2C1 (stereo not given)	active: 0.37 µM
COc1cc(C(=O)NC2=C(C#N)CCC2)cc(OC)c1OC	inactive
O=C(Nc1ccc(Br)cc1)Nc1cnccn1	inactive
Cc1cc(NCCCN2CCOCC2)n2nc(C)c(-c3ccccc3)c2n1	inconclusive: 0.0828 µM [inhibitor, full curve, poor fit]
CCc1nnc(NC(=O)/C=C/c2cccs2)s1	inactive
NC1CCCCC1N=Cc1c(O)n(CCc2ccc(F)cc2)c(=O)[nH]c1=O (stereo not given)	active: 4.65 µM
CCN(CC)S(=O)(=O)c1ccc(C(=O)NN(C)C2=NS(=O)(=O)c3ccccc32)cc1	inconclusive: 18.5 µM [inhibitor, single point]
CC(=O)Nc1ccc(NC(=O)CCc2ccc(C)o2)cc1	inactive
O=C(CCN1C(=O)/C(=C/c2ccccc2F)SC1=S)Nc1ccccn1	inconclusive: 20.8 µM [inhibitor, partial curve, poor fit]
CC(C)C(=O)NCCc1nc2ccccc2n1CCCOc1ccc(Cl)cc1	inconclusive: 5.86 µM [inhibitor, partial curve, poor fit]
COC(=O)C(CO)NC(=O)C(C)NC(=O)CNC(=O)OCc1ccccc1 (stereo not drawn) (Cbz-Gly-Ala-Ser-OMe; configuration not given here)	inconclusive: 5.22 µM [inhibitor, partial curve, poor fit]

Compounds from the list above that contain a Cl atom (2):
SMILES	Potency
S=C(Nc1ccccc1Cl)NC1CCN(Cc2ccccc2)CC1	inconclusive: 18.5 µM [inhibitor, single point]
CC(C)C(=O)NCCc1nc2ccccc2n1CCCOc1ccc(Cl)cc1	inconclusive: 5.86 µM [inhibitor, partial curve, poor fit]

Carrying on.

SMILES	Potency
O=S(=O)(c1ccccc1)N1CCC(c2ccccc2)CC1	inconclusive: 1.85 µM [inhibitor, single point]
CN(Cc1ccccc1F)Cc1cc(=O)oc2cc(O)c(Cl)cc12	inconclusive: 13.1 µM [inhibitor, single point]
CC(NC(=O)c1ccccc1NC(=O)c1ccccc1)C(=O)N1CCOCC1 (stereo not given)	inconclusive: 18.5 µM [inhibitor, single point]
O=C(c1ccc2c(c1)N(Cc1ccccc1F)C(=O)c1ccccc1S2)N1CCOCC1	inconclusive: 10.4 µM [inhibitor, single point]
COc1ccc(OC)c(N2C(N)=C(C#N)C(c3ccc(OC)c(O)c3)C3=C2CC(C)(C)CC3=O)c1 (stereo not given)	inconclusive: 1.65 µM [inhibitor, full curve]
O=C(CCCCCN1C(=O)c2ccccc2C1=O)Nc1nccs1	inconclusive: 2.62 µM [inhibitor, full curve, poor fit]
COC(=O)c1ccc([C@@H]2C[C@H]3CN(Cc4cccnc4)C(=O)[C@]34CCCN24)cc1	active: 10.4 µM
COc1ccccc1NS(=O)(=O)c1cc(-c2cc(C)no2)ccc1OC	inconclusive: 18.5 µM [inhibitor, single point]
O=C(c1ccc(OC2CCN(CCc3ccccc3)CC2)cc1)N1CCCCC1CCCO (stereo not given)	inactive
CN(Cc1cccs1)C(=O)C1CCN(S(=O)(=O)c2ccccc2)CC1	inconclusive: 10.4 µM [inhibitor, single point]
Cc1ccc(-n2ncc3c(NCc4ccco4)ncnc32)cc1C	inconclusive: 18.5 µM [inhibitor, single point]
Cc1ccc(CSC2=Nc3sccc3C3=NC(=O)CN23)cc1	inconclusive: 10.4 µM [inhibitor, partial curve, poor fit]
CC1CC(C)CN(CCCNC(=O)C2CCC(=O)N2C2CCCC2)C1 (stereo not given)	active: 10.4 µM
COc1ccc(N(C(=O)CCl)C(C(=O)NCCc2ccccc2)c2cccs2)cc1Cl (stereo not given)	active: 4.65 µM
COc1cccc(-c2c(C(=O)N/N=C/c3ccc(C)s3)nnn2-c2nonc2N)c1	active: 4.15 µM
COc1cccc(-c2ccc(NC(=O)C3CCCN(Cc4cnn(C(C)C)c4)C3)cc2)c1 (stereo not given)	inactive
COc1ccc(OCC(=O)N2CCN(C(=O)c3ccc([N+](=O)[O-])cc3)CC2)cc1	inactive
CC(C)(C)n1cnc2cc(NCc3cccs3)ccc21	inactive
CCCn1c(C)cc(C(=O)COc2ccc(-c3nnco3)cc2)c1C	inconclusive: 18.5 µM [inhibitor, single point]
Cn1ccc(-c2ccccc2)c(C#N)c1=O	inconclusive: 10.4 µM [inhibitor, single point]
CCOC(=O)N1CCN(C(=O)CSc2nc3c(cnn3-c3ccc(Cl)cc3)c(=O)[nH]2)CC1	inactive
COc1cc(C(=O)N/N=C/c2ccccn2)cc(OC)c1OC	inconclusive: 11.7 µM [inhibitor, single point]
